Library screening results

The values are deposited in ChEMBL (CHEMBL3988442, “University of Dundee, Small-Polar-MMV Screening Library” (2021)).

Mtb heat-shock: 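Assay on Mycobacterium tuberculosis, filed only as a heat shock assay from Cornell; the read-out is not stated. The concentration is filed as 10 mM, unlikely as a test dose, so the dose is not known. Higher reads as stronger inhibition (inferred: compounds with an IC50 in retests scored well above the rest). Of about 69,000 compounds tested this way, about 930 (1.4%) reached 50% or more in at least one test.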
Mtb growth Cornell: 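Whole-cell assay for inhibitors of Mycobacterium tuberculosis growth, labelled Cornell in the record; the read-out is not stated. The concentration is filed as 10 mM, unlikely as a test dose, so the dose is not known. The record gives no direction; compounds strong in two other growth screens of this library score well above the rest, so higher reads as stronger inhibition. Of about 53,000 compounds tested this way, about 900 (1.7%) reached 50% or more in at least one test.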

Values are the deposited “Percent Effect”, in %.
How 0% and 100% were set is not recorded. Most values in the screen are low, and negative values occur.
The compounds are a random part of those screened.

Result for CC(c1ccccc1F)N1CCN(C(=O)Cc2ccncc2)CC1 (stereo not given) was Mtb heat-shock: -22.35%.
Result for CC(C)CC(=O)N1Cc2ccccc2CC1C(=O)Nc1nncs1 (stereo not given) was Mtb heat-shock: 36.22%; Mtb growth Cornell: 29.19%.
Result for NC(=O)C1(Cc2ccc(-c3ccccc3)cc2)CCCNC1 (stereo not given) was Mtb heat-shock: -13.65%; Mtb growth Cornell: -4.007%.
Result for O=C(O)C(F)(F)F.O=C(O)C(F)(F)F.[H][C@@]12CN(c3ncccn3)C[C@]1([H])[C@@H]2CC(=O)Nc1cccnc1 was Mtb heat-shock: -6.911%; Mtb growth Cornell: -10.64%.
Result for CC(C)(C)OC(=O)N1CCCc2ccc(NCc3ccon3)cc21 was Mtb heat-shock: -14.05%.
Result for Cc1nc(CNC(C)c2cccc(N3CCCC3=O)c2)cs1.Cl (stereo not given) was Mtb heat-shock: -10.34%; Mtb growth Cornell: -20.58%.
Result for Cn1cc(NCCOc2ccc(F)cc2)cn1 was Mtb heat-shock: 8.98%; Mtb growth Cornell: 2.864%.
Result for NC1CCCCN(Cc2cc(C3CCCCC3)no2)C1 (stereo not given) was Mtb heat-shock: -11.07%; Mtb growth Cornell: 9.507%.
Result for COc1ccc(CN2CCC3(CC2)CCN(c2cnn(C)c2)C3=O)cc1.O=C(O)C(F)(F)F was Mtb heat-shock: -18%; Mtb growth Cornell: 22.33%.
Result for CC(NC(=O)c1ccnc(C2CC2)n1)C1(N2CCOCC2)CCCC1 (stereo not given) was Mtb heat-shock: 7.637%; Mtb growth Cornell: 29.5%.
Result for CN1CCOC[C@H]1c1nc(C(C)(C)C)c[nH]1 was Mtb heat-shock: -24.1%; Mtb growth Cornell: -34.04%.
Result for CC(C)Cc1noc(CN2CCOCC2)n1 was Mtb heat-shock: 3.058%.
Result for Cc1nn(CC(=O)N2CCN(Cc3cn(C)nc3C)CC2)cc1Br was Mtb heat-shock: -5.726%; Mtb growth Cornell: -5.088%.
Result for Cc1noc(C)c1CCC(=O)N1CCCC(n2ccnc2C)C1 (stereo not given) was Mtb heat-shock: -1.729%.
Result for COc1nn(C)c2c1CCCN(C(=O)c1ccccc1F)C2 was Mtb heat-shock: -0.08208%; Mtb growth Cornell: -7%.
Result for COc1c(F)cc(NC(=O)N2CCC(CSC)C2)cc1F (stereo not given) was Mtb heat-shock: -170.1%.
Result for CC(C)CC(NC(=O)CSc1ccc(F)c(Cl)c1)C(=O)O (stereo not given) was Mtb heat-shock: -13.67%; Mtb growth Cornell: 3.237%.
Result for COc1ncccc1CNC(=O)c1cnc(C)cn1 was Mtb heat-shock: 19.75%.
Result for CCCn1nc(C(=O)NCCc2nnc3n2CCC3)ccc1=O was Mtb heat-shock: 2.461%; Mtb growth Cornell: 3.464%.
Result for Nc1nc(NCCO)cc(N2CCc3c([nH]c4ccccc34)C2)n1 was Mtb heat-shock: 14.3%.
Result for CCc1nc(C2CCCN(C(=O)c3cccc4c3ccn4C)C2)no1 (stereo not given) was Mtb heat-shock: 10.22%; Mtb growth Cornell: 16.58%.
Result for COCCN(C)C(=O)Nc1ccn(-c2cccc(C(F)(F)F)c2)n1 was Mtb heat-shock: -13.22%; Mtb growth Cornell: 18.5%.
Result for O=C(O)C(F)(F)F.O=C(O)C(F)(F)F.[H][C@@]12COC[C@]1(COC)CN(Cc1ccc3ccccc3n1)C2 was Mtb heat-shock: 9.738%; Mtb growth Cornell: 27.03%.
Result for Cc1nn(C)c2c(N3CCCC3)nc(C3CC3)nc12 was Mtb heat-shock: -13.29%; Mtb growth Cornell: 20.06%.
Result for c1ccc(OCCNCc2cccs2)nc1 was Mtb heat-shock: -4.17%; Mtb growth Cornell: 23.43%.
Result for CC1CCN(C(=O)Cn2cc(I)cn2)CC1 was Mtb heat-shock: 25.14%.
Result for Cn1ccc(C(=O)NCc2cccc(CN3CCCC3)c2)cc1=O was Mtb heat-shock: 17.46%; Mtb growth Cornell: -13.14%.
Result for Cc1nnc2ccc(OCCNS(=O)(=O)c3cccs3)nn12 was Mtb heat-shock: 20.38%; Mtb growth Cornell: 14.87%.
Result for Cc1cnn(CC2CN(Cc3nc(-c4ccoc4)no3)CCO2)c1 (stereo not given) was Mtb heat-shock: 8.998%; Mtb growth Cornell: 10.25%.

Once more, the final 2:

compound	Mtb heat-shock	Mtb growth Cornell
Cc1nnc2ccc(OCCNS(=O)(=O)c3cccs3)nn12	20.38%	14.87%
Cc1cnn(CC2CN(Cc3nc(-c4ccoc4)no3)CCO2)c1 (stereo not given)	8.998%	10.25%